This passage reports T/C and survivor count results from PubChem BioAssay AID330 (DTP/NCI, 2004).

The assay concerns P388 leukemia ip, CD2F1 mice, survival T/C. Put plainly: NCI In Vivo Anticancer Drug Screen. Data for tumor model P388 Leukemia (intraperitoneal) in CD2F1 (CDF1) mice. Particulars: T/C endpoint: median survival time, higher T/C = longer survival.
The mark [1] stands for this setting: dose: 60.0 mg/kg/injection, schedule: Q01DX005 (ip), vehicle: saline.
The mark [2] stands for this setting: dose: 120.0 mg/kg/injection, schedule: Q01DX005 (ip), vehicle: saline.
The mark [3] stands for this setting: dose: 240.0 mg/kg/injection, schedule: Q01DX005 (ip), vehicle: saline.
[4] abbreviates: dose: 50.0 mg/kg/injection, schedule: Q01DX009 (ip), vehicle: saline with Tween-80.
The mark [5] stands for this setting: dose: 200.0 mg/kg/injection, schedule: Q01DX009 (ip), vehicle: saline with Tween-80.
[6] abbreviates: dose: 100.0 mg/kg/injection, schedule: Q04DX003 (ip), vehicle: Klucel (hydroxypropylcellulose) (HPC).
Setting [7] is: dose: 200.0 mg/kg/injection, schedule: Q04DX003 (ip), vehicle: Klucel (hydroxypropylcellulose) (HPC).
The mark [8] stands for this setting: dose: 400.0 mg/kg/injection, schedule: Q04DX003 (ip), vehicle: Klucel (hydroxypropylcellulose) (HPC).
Setting [9] is: dose: 100.0 mg/kg/injection, schedule: Q01DX001 (ip), vehicle: Klucel (hydroxypropylcellulose) (HPC).
Where [10] appears, read: dose: 200.0 mg/kg/injection, schedule: Q01DX001 (ip), vehicle: Klucel (hydroxypropylcellulose) (HPC).
[11] abbreviates: dose: 400.0 mg/kg/injection, schedule: Q01DX001 (ip), vehicle: Klucel (hydroxypropylcellulose) (HPC).
Setting [12] is: dose: 25.0 mg/kg/injection, schedule: Q01DX009 (ip), vehicle: saline with Tween-80.

Each structure is given as a SMILES string. The list does not hold the whole screen: it gathers some chemical classes. Not every dose and run of a compound is shown. T/C: endpoint of the treated group in % of that of the vehicle group. Some entries give survivors of the animals treated and no T/C: the source holds a T/C of zero for them, seemingly a mark for toxic or unscored doses. Some doses without a T/C left all or most animals alive at the check, yet need not have been tolerated: the source hardly ever lists a survival T/C far under the control, and the zero likely stands for such cases as well. Survivors were counted at the toxicity check, usually on the fifth day, unless a day is given; later deaths do not show. Schedule codes are those of the source, taken here to give the interval after Q, in days (D) or hours (H), and the number of doses after X. Some complexes appear as separate parts, the way the source draws them; their charges need not add up. For survival time, this PubChem deposit counts one and a half times the control or more as active, and values a quarter to a half above the control carry no call in these data; other NCI protocols may use other cut-offs. Some entries were tested several times; their values stand side by side, smallest first. Some entries show no survivor count and are marked so; the dose need not have been tolerated. Some T/C values are followed by the survivors on the day toxicity was checked, most often the fifth; without a count or a note in brackets, all were alive then.

Take `IC1CCC2SC1CCC2I` (stereo not given): the T/C reads like this: (dose: 50.0 mg/kg/injection, schedule: Q04DX003 (ip), vehicle: saline + alcohol) 108 % of control; (dose: 100.0 mg/kg/injection, schedule: Q04DX003 (ip), vehicle: saline + alcohol) 100 and 104 % of control; (dose: 200.0 mg/kg/injection, schedule: Q04DX003 (ip), vehicle: saline + alcohol) 104, 106, 109 % of control; (dose: 400.0 mg/kg/injection, schedule: Q04DX003 (ip), vehicle: saline + alcohol) 104 and 112 % of control; (dose: 600.0 mg/kg/injection, schedule: Q04DX003 (ip), vehicle: saline + alcohol) 99 and 108 % of control.
In the case of `CC(C)OP(C)(=O)OC(C)C.CC(C)OP(C)(=O)OC(C)C.CC(C)OP(C)(=O)OC(C)C.CC(C)OP(C)(=O)OC(C)C.[Co+2].[O-][Cl+3]([O-])([O-])O`, the T/C (dose: 50.0 mg/kg/injection, schedule: Q01DX009 (ip), vehicle: saline) was 98 % of control [survivor count not shown] and the T/C (dose: 100.0 mg/kg/injection, schedule: Q01DX009 (ip), vehicle: saline) was 114 % of control [survivor count not shown].
Regarding `O=C1OCCN1P(=O)(Cl)N1CCOC1=O`, the T/C was 95 % of control under setting [1] and 90 % of control under setting [2]. In addition, the survivor count under setting [3] is 5 of 6.
Regarding `[N-]=[N+]=NC/C(N)=N/O`, the T/C is, setting by setting: (dose: 50.0 mg/kg/injection, schedule: Q01DX005 (ip), vehicle: saline) 101 % of control; (dose: 100.0 mg/kg/injection, schedule: Q01DX005 (ip), vehicle: saline) 107 % of control; (dose: 200.0 mg/kg/injection, schedule: Q01DX005 (ip), vehicle: saline) 110 % of control.
Take `N#[O+].[C-]#N.[C-]#N.[C-]#N.[C-]#N.[C-]#N.[Cr+5]`: the T/C runs as follows: (dose: 12.5 mg/kg/injection, schedule: Q04DX003 (ip), vehicle: water) 99 % of control; (dose: 25.0 mg/kg/injection, schedule: Q04DX003 (ip), vehicle: water) 99 % of control; (dose: 50.0 mg/kg/injection, schedule: Q04DX003 (ip), vehicle: water) 98 % of control; (dose: 100.0 mg/kg/injection, schedule: Q04DX003 (ip), vehicle: water) 94 % of control [5 of 6 alive]. The survivor count (dose: 200.0 mg/kg/injection, schedule: Q04DX003 (ip), vehicle: water) is listed as 3 of 6.
With `CN1CC2CC(C1)CN(C)C2.F[P-](F)(F)(F)(F)F`, the T/C was 104 % of control under setting [4] and 109 % of control (dose: 100.0 mg/kg/injection, schedule: Q01DX009 (ip), vehicle: saline with Tween-80). The survivor count under setting [5] is 4 of 6.
In the case of `COP(OC)c1ccccc1P(OC)OC`, the T/C reads like this: under setting [1], 101 % of control; under setting [2], 119 % of control; under setting [3], 105 % of control.
For the compound `N/C(=N\[N+](=O)[O-])N(N)CCN(N)/C(N)=N/[N+](=O)[O-]`, the T/C under setting [6] is 100 % of control [survivor count not shown], the T/C under setting [7] is 106 % of control [survivor count not shown] and the T/C under setting [8] is 103 % of control [survivor count not shown].
`F[As-](F)(F)(F)(F)F.c1ccc([As+](c2ccccc2)(c2ccccc2)c2ccccc2)cc1`: the T/C runs as follows: (dose: 12.5 mg/kg/injection, schedule: Q01DX009 (ip), vehicle: Klucel (hydroxypropylcellulose) (HPC)) 130 % of control; (dose: 25.0 mg/kg/injection, schedule: Q01DX009 (ip), vehicle: Klucel (hydroxypropylcellulose) (HPC)) 135 and 140 % of control; (dose: 50.0 mg/kg/injection, schedule: Q01DX009 (ip), vehicle: Klucel (hydroxypropylcellulose) (HPC)) 142 and 150 % of control; (dose: 50.0 mg/kg/injection, schedule: Q04DX003 (ip), vehicle: Klucel (hydroxypropylcellulose) (HPC)) 114 and 124 % of control; (dose: 100.0 mg/kg/injection, schedule: Q01DX009 (ip), vehicle: Klucel (hydroxypropylcellulose) (HPC)) 145 [5 of 6 alive] and 159 % of control; under setting [6], 118 and 141 % of control. For the same compound, the T/C by setting is: (dose: 200.0 mg/kg/injection, schedule: Q01DX009 (ip), vehicle: Klucel (hydroxypropylcellulose) (HPC)) 155 % of control; under setting [7], 138 and 141 % of control; under setting [8], 129 and 150 % of control.
As for `CN([PH+](F)F)[PH+](F)F.CN([PH+](F)F)[PH+](F)F.CN([PH+](F)F)[PH+](F)F.[C-]#[O+].[C-]#[O+].[Co].[Co]`, the T/C under setting [9] is 107 % of control, the T/C under setting [10] was 99 % of control and the T/C under setting [11] was 95 % of control.
`N#C/C(=C\c1ccc(N(CCBr)CCBr)cc1)C(N)=O`: the T/C runs as follows: (dose: 0.5 mg/kg/injection, schedule: Q01DX009 (ip), vehicle: saline) 133 % of control; (dose: 1.0 mg/kg/injection, schedule: Q01DX009 (ip), vehicle: saline) 150 % of control; (dose: 2.0 mg/kg/injection, schedule: Q01DX009 (ip), vehicle: saline) 164 % of control; (dose: 4.0 mg/kg/injection, schedule: Q01DX009 (ip), vehicle: saline) 198 % of control; (dose: 8.0 mg/kg/injection, schedule: Q01DX009 (ip), vehicle: saline) 171 % of control.
With `CCOC(=O)NC(c1ccccc1[N+](=O)[O-])P(=O)(O)Nc1ncn[nH]1` (stereo not given), the T/C was 98 % of control (dose: 60.0 mg/kg/injection, schedule: Q01DX005 (ip), vehicle: saline with Tween-80); 101 % of control (dose: 120.0 mg/kg/injection, schedule: Q01DX005 (ip), vehicle: saline with Tween-80); 95 % of control (dose: 240.0 mg/kg/injection, schedule: Q01DX005 (ip), vehicle: saline with Tween-80).
On to `C/C(=C/C(=O)O)[As](=O)(O)O`, for which the T/C runs as follows: (dose: 7.5 mg/kg/injection, schedule: Q01DX009 (ip), vehicle: saline with Tween-80) 99 % of control; (dose: 15.0 mg/kg/injection, schedule: Q01DX009 (ip), vehicle: saline with Tween-80) 100 % of control; (dose: 30.0 mg/kg/injection, schedule: Q01DX009 (ip), vehicle: saline with Tween-80) 97 % of control.
For the compound `O=[N+]([O-])c1ccc2c(Cl)n([N+](=O)[O-])nc2c1`, the T/C runs as follows: (dose: 12.5 mg/kg/injection, schedule: Q01DX009 (ip), vehicle: saline with Tween-80) 100 % of control; under setting [12], 98 % of control; under setting [4], 98 % of control.
Take `C/C(CCl)=N\NC1=NC(C)(CCl)P(=O)(Nc2ncn[nH]2)S1` (stereo not given): the T/C under setting [1] is 95 % of control and the T/C under setting [2] is 103 % of control. The survivor count under setting [3] is reported as 0 of 6.
Regarding `CN([PH+](F)F)[PH+](F)F.CN([PH+](F)F)[PH+](F)F.[C-]#[O+].[C-]#[O+].[C-]#[O+].[C-]#[O+].[CH-]=O.[Fe].[Fe]`, the T/C under setting [9] is 100 % of control, the T/C under setting [10] was 102 % of control and the T/C under setting [11] was 100 % of control.
As for `COP(C)(=O)O.[Eu]`, the T/C is 96 % of control [survivor count not shown] under setting [12]; 91 % of control [survivor count not shown] under setting [4]; 94 % of control [survivor count not shown] (dose: 100.0 mg/kg/injection, schedule: Q04DX002 (ip), vehicle: saline); 88 % of control [survivor count not shown] under setting [5]; 101 % of control [survivor count not shown] (dose: 200.0 mg/kg/injection, schedule: Q04DX002 (ip), vehicle: saline); 106 % of control [survivor count not shown] (dose: 400.0 mg/kg/injection, schedule: Q04DX002 (ip), vehicle: saline).
